Measurements taken from patent US20250073350A1.
Results are given in words; binding and its absence hold for the method and conditions named. Some binding calls cover weakened binding; strength is not graded here.

Sequences of proteins named here, by UniProt entry; tags and fusion partners are left off.
UniProt Q7M732: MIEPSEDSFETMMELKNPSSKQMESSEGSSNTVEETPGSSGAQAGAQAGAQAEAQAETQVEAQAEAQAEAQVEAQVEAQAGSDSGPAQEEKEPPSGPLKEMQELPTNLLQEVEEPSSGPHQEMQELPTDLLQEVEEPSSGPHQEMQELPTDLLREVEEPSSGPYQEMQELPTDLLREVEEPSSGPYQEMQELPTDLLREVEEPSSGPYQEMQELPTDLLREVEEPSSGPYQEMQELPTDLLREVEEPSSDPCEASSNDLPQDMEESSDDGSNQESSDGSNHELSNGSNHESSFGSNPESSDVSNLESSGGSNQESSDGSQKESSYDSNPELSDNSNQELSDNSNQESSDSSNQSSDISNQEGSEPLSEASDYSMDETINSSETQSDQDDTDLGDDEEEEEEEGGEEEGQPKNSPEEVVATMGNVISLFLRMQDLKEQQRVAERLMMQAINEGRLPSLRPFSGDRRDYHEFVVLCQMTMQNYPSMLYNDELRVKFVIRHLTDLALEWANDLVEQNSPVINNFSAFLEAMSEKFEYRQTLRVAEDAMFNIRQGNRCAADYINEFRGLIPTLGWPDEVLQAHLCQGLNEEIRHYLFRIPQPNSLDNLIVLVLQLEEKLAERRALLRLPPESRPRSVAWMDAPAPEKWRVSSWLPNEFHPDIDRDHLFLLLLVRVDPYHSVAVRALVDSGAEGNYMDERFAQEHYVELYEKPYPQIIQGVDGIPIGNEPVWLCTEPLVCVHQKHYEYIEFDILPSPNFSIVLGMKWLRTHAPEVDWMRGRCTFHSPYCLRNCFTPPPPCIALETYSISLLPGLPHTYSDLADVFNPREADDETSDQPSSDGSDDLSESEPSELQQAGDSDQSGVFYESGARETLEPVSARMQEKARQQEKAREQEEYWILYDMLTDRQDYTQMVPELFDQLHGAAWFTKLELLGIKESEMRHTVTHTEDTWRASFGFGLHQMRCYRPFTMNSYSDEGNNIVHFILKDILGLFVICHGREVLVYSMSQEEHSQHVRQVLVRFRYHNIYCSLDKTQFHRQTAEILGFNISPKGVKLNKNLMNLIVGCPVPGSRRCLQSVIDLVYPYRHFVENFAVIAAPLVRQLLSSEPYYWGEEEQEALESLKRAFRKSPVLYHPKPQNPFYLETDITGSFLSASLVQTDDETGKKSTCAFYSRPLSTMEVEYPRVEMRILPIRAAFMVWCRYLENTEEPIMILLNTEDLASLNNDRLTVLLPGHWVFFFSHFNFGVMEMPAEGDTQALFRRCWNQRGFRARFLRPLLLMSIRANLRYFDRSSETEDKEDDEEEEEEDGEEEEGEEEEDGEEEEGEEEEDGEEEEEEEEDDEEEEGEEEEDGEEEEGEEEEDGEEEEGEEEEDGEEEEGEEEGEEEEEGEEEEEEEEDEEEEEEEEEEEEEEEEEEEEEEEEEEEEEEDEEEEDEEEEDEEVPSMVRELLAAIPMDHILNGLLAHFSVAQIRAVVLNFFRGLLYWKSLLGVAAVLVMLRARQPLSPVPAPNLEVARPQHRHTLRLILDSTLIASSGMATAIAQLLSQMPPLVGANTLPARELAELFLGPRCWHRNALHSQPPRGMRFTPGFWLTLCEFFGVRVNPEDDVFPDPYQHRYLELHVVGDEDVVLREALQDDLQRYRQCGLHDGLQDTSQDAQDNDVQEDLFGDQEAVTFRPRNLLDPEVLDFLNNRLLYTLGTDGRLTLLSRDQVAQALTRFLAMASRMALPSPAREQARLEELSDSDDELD

Molecular target: MmRTL1, bacterially produced (mouse) (UniProt Q7M732)
Assay: self-association; size exclusion and electron microscopy of protein produced in E. coli

binding: binds
Substance: MmRTL1, bacterially produced (from UniProt Q7M732 1-1744)
